# Assay results: the GenesisPotency data set
# By UniProt entry, the sequences of proteins in these tests, tags left out.
# UniProt P04637, whole entry, looked up: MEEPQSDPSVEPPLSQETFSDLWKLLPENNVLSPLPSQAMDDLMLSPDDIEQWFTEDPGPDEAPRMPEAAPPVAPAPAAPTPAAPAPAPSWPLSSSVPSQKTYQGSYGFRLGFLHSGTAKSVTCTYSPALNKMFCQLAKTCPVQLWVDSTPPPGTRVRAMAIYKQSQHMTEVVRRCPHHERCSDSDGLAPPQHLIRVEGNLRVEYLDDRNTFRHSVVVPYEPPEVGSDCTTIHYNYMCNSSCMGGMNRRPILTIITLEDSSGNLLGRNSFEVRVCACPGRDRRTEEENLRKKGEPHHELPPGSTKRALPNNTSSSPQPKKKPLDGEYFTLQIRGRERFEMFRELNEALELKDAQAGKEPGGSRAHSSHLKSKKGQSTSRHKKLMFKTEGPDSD
# Screen size: about 10,000 compounds; about 600 (6%) were called active. Another 27% or so got no clear call; they are omitted. Calls come from the whole dose curve. The list shows a part of the results.
# Biological target: Cellular tumor antigen p53, Homo sapiens (UniProt P04637)
# Experiment: qHTS assay for small molecule agonists of the p53 signaling pathway (AID 651631)
row,Structure (SMILES),outcome
1,[I-].[Na+],inactive
2,[I-].[K+],inactive
